Publication doi:10.1101/2020.11.24.395905
Results are given in words; binding and its absence hold for the method and conditions named. Binding seen in cells or lysates may run through a third protein. Binding calls can cover weak binding; strength is not graded here. Sequences can lack the tags named with a protein.

Molecular target: T1, Orco:GFP (odour receptor coreceptor fused to GFP) (Drosophila) (UniProt Q9VNB5)
T1 sequence: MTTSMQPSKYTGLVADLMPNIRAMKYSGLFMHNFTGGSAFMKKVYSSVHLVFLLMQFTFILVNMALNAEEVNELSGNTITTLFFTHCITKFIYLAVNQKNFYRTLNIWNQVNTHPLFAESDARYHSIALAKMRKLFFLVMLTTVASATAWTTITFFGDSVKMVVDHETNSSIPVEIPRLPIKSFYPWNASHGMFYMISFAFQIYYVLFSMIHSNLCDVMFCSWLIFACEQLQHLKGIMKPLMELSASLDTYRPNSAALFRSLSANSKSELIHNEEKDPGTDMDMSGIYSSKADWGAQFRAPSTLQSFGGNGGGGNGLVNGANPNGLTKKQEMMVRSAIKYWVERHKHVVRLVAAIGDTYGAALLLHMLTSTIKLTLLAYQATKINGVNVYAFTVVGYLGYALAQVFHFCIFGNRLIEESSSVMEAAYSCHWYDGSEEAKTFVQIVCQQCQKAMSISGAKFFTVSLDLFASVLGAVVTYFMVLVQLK
Assay: co-IP

DmKAP (kinesin associated protein, accessory subunit of kinesin-2) (Drosophila (endogenous in adult heads))
binding: binds
